Laboratory results taken from PubChem BioAssay AID624404 (Broad Institute, 2012).
The list shows a part of the results, in another mix than the full data. Measured potencies and affinities stand elsewhere. Inconclusive results are not listed. Active and inactive are the calls of the source.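 The calls were made as follows: active = luciferase signal rise whose fitted curve crosses a set activity limit at or below the top valid tested dose; inconclusive = flat fit with 30 to 70% rise, or poor fit; inactive = signal falling, flat within 30%, or crossing above top dose.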

Experiment: reporter signal increase, D54 LucT cells – cell-based, luminescence, cherry pick, counter-screen for N-linked glycosylation inhibitor project, dose response (AID 624404);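 also: 0% = median neutral control signal and 100% = twice that signal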
Conditions: D54 LucT luciferase reporter counterscreen, 24 h; at 19.5 µM (top of the series)

Compound | activity increase (luciferase signal)
O=C1NN(c2ccccc2)C(=O)/C1=C/c1ccc(Sc2ccc(Cl)cc2)o1 | inactive: 5.17%
